Measurements from article PMC3724829.
These are yes or no findings as the source states them, for the method shown. Binding seen in cells or lysates may run through a third protein. Some entries that bind do so weakly or less than the wild type. Tags and fused reporters may be left off the sequences shown.

The chains behind the UniProt entries cited, without tags or fusion partners.
UniProt Q96EB6: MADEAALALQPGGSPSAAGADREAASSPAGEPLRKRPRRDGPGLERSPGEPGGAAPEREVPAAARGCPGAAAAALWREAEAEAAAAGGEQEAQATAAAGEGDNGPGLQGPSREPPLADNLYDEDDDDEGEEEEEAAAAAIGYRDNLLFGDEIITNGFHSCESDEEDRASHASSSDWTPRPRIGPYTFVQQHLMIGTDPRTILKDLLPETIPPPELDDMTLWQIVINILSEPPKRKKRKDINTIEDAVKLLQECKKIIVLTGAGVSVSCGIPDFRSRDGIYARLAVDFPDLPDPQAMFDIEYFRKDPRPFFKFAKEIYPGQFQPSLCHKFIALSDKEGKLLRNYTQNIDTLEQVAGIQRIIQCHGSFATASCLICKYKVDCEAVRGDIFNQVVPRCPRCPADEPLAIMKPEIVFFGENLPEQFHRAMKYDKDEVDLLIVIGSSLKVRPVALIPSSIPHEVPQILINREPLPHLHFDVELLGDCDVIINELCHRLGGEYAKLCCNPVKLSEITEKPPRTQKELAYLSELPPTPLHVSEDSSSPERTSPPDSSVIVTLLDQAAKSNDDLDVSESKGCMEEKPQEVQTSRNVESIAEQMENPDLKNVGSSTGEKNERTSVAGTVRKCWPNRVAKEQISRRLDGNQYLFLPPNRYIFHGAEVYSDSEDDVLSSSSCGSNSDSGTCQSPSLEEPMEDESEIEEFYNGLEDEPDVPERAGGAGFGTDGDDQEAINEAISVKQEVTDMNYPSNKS

Biological target: Flag tagged SIRT1 (human (cDNA library of HepG2 cells)) (UniProt Q96EB6)
Experiment: co-IP; 293T cells cotransfected with Myc tagged TRβ1 and Flag tagged SIRT1, treated +/- 10 nM T3 for 12 h; RIPA lysate (400 µg) with anti-Flag or anti-myc agarose beads, 12 h at 4°C; Western blot

binding: binds
B1: Myc tagged TRβ1 (receptor, UniProt P10828-1 1-461)
chain: MTPNSMTENGLTAWDKPKHCPDREHDWKLVGMSEACLHRKSHSERRSTLKNEQSSPHLIQTTWTSSIFHLDHDDVNDQSVSSAQTFQTEEKKCKGYIPSYLDKDELCVVCGDKATGYHYRCITCEGCKGFFRRTIQKNLHPSYSCKYEGKCVIDKVTRNQCQECRFKKCIYVGMATDLVLDDSKRLAKRKLIEENREKRRREELQKSIGHKPEPTDEEWELIKTVTEAHVATNAQGSHWKQKRKFLPEDIGQAPIVNAPEGGKVDLEAFSHFTKIITPAITRVVDFAKKLPMFCELPCEDQIILLKGCCMEIMSLRAAVRYDPESETLTLNGEMAVTRGQLKNGGLGVVSDAIFDLGMSLSSFNLDDTEVALLQAVLLMSSDRPGLACVERIEKYQDSFLLAFEHYINYRKHHVTHFWPKLLMKVTDLRMIGACHASRFLHMKVECPTELFPPLFLEVFED
